Experimental data as given in US20040096448A1.
No constants are given. Whether binding was seen depends on the method and setting. Binding seen in cells or lysates may run through a third protein. Some entries that bind do so weakly or less than the wild type. Sequences can lack the tags named with a protein.

By UniProt entry, the sequences of proteins in these tests, tags left out.
UniProt P31749: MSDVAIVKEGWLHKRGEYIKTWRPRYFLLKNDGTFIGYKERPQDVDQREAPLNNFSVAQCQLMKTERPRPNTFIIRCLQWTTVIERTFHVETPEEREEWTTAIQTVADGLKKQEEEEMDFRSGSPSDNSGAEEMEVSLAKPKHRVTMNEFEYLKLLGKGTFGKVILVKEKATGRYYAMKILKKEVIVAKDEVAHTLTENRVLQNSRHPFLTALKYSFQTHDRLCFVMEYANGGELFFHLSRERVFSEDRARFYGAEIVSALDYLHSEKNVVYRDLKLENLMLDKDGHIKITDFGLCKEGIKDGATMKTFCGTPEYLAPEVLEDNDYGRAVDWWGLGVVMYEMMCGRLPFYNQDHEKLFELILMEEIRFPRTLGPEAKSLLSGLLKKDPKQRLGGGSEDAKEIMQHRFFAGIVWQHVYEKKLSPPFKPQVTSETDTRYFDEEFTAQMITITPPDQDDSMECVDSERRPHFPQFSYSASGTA

Target: T1, GSH-bead-immobilized recombinant GST-fused AIP purified from bacterial lysates (human) (UniProt Q96P53)
T1 sequence: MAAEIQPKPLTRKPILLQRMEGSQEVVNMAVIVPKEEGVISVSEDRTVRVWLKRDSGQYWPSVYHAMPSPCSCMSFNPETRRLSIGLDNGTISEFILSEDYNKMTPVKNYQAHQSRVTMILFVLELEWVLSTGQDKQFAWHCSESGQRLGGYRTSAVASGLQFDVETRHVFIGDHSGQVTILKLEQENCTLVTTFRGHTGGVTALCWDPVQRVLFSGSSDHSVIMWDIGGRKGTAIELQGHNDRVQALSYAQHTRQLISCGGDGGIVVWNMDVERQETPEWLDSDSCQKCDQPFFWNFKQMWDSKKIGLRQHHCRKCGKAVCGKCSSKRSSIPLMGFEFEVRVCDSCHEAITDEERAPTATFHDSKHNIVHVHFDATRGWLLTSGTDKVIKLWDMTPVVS
Test: pull-down: GST-AIP on GSH beads incubated with lysate of IGF-stimulated 293T cells expressing HA-Akt-1; anti-HA western blot

binding: binds
Substance: HA-tagged Akt-1 protein expressed in 293T cells (lysate, after serum starvation and IGF stimulation for 0, 5, 20, 45 min) (from UniProt P31749 1-480) (enzyme)
